In all, about 33,000 sequences were measured (“E-score (-0.5 to 0.5)”: median about -0.016, highest 2% from about 0.3 on). Some of the results follow.
Molecular target: T1, Yer184c (UniProt P39961)
T1 sequence: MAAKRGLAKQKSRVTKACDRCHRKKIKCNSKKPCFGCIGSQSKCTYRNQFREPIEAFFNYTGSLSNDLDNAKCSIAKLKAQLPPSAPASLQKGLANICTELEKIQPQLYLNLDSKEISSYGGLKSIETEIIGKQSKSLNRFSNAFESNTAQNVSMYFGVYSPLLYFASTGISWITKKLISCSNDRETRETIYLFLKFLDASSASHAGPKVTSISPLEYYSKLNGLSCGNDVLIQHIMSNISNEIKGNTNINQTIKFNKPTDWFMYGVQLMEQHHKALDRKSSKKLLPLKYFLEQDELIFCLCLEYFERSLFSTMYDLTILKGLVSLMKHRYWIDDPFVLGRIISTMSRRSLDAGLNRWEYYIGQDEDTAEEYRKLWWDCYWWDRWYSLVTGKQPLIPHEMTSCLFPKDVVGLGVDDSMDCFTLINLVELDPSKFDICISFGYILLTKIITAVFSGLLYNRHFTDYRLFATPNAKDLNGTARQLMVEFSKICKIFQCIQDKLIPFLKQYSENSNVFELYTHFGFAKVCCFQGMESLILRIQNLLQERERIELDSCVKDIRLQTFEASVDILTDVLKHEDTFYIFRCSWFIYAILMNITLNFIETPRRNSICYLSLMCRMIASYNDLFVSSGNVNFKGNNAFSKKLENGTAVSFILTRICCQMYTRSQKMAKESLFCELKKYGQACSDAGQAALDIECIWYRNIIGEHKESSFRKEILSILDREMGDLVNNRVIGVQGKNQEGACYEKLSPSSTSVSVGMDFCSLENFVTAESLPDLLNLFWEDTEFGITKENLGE
Experiment: PBM E-score (8-mer binding enrichment) (E-score (-0.5 to 0.5)); higher = stronger / more preferred TF binding
Settings: protein concentration: 100 nM; construct: GST-full length
Outline: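 Each ungapped eight-base word and its reverse complement, pooled, received an E-score from the Universal PBM Analysis Suite. Underlying scans, normalised with masliner, recorded fluorescent anti-GST bound to GST-tagged yeast transcription factors. These were applied at about 100-200 nM to universal all-10-mer Agilent arrays double-stranded by primer extension.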

Sequence	PBM E-score
CAGAGCTG	-0.242
AATCAGAC	0.144
AGTCATAA	0.0175
CTGGGAAA	0.0167
GGAGAAAA	0.0592
AGATGACA	-0.0514
TCATCTAA	0.0759
CCACAACG	-0.111
GCCGTAAA	0.339
CCGGGGCG	0.198
CAATCGTG	-0.0171
CATCCACG	-0.119
ATTCTTTA	0.0489
GCCATGCA	-0.0622
GGTCGAAC	0.0383
GGTAGTAA	-0.118
AAGGTCGA	-0.146
GCGCGCTA	0.00775
GTATCTCA	0.151
AGATTGCG	-0.014
CACCGTCA	0.00763
CTTATAAA	0.174
CGCAAACA	0.108
CAGTGGCC	-0.0943

Copied from the list.
PBM E-score with CCACAACG is entered as -0.111
PBM E-score with AGATTGCG is entered as -0.014
PBM E-score with AAGGTCGA is entered as -0.146
PBM E-score with TCATCTAA is entered as 0.0759

(list continues)

Sequence	PBM E-score
CCCCTTGC	-0.326
CTCCTGTA	-0.0268
CAAATAGC	0.0894
ACGACCGC	-0.149
ATGGCTGC	-0.188
GTCTAGTA	-0.0761
ACTAGTTA	0.0593
ACGGAACG	0.212
CCTAATAC	0.0643
TCAGAAGA	0.0255
CTCTATGA	-0.158
AGGAGAAA	-0.0807
AATAGACA	-0.0396
AAATTGCG	0.0977
GACCACTA	-0.0657
GTGTACAA	0.136
ACCGGAGT	0.186
GGCTTTAC	0.207
ACAAGTCC	-0.0162
AGGTTTGG	-0.153
ATCTAGAT	0.00195
CAGTGCCA	-0.328
ATGAACTC	0.0654
ATCAGTCA	0.156

Sequence	PBM E-score
CTCTTAGC	0.0811
GAATAACA	0.199
ATTACCAC	0.105
AGGAAAAT	0.0993
AATATATC	0.292
GAAGCTTA	0.0282
AACTGACA	0.00973
GAGACGGC	0.24
CGGCACCA	0.256
CTATGTAC	-0.224
AATACCAA	0.129
GGATCAGA	-0.0512
GATTAAGA	0.135
AACTAATC	0.0714
ACGCTCCC	-0.0299
AAGCCATA	-0.153
GAACGGTC	-0.0132
TCTTTTCA	0.101
CTACTCAG	-0.113
TACGTGAA	-0.0153
CTAAGGGA	-0.118
AGCGGTCC	0.0927
AATGCCTG	-0.123
AACAAGAG	-0.133

Sequence	PBM E-score
CATGCCAC	-0.224
AAAATTAA	0.168
CTTTCACA	0.189
GCGGCCTA	-0.177
AGCGGCGC	-0.00549
CGACATCA	0.131
GGGAGCCA	-0.261
AGATAGTA	0.223
GAAGGGTC	-0.172
GCCCTTAA	-0.0336
CCCGACGG	0.0798
ATAAGTTC	0.181
CATCACAA	0.00903
TATCGCCA	-0.0705
TATCGACA	0.00835
ACAAGTCT	-0.148
CACTCGTC	-0.0494
AGACATAT	-0.00394
GTGATCCA	-0.0784
GAACTACA	0.0653
AAAGCCGG	0.351
CGATTCCA	0.0177

Reference: the supplement of paper PMC3334620
